Test results published in PubChem BioAssay AID2685 (National Center for Advancing Translational Sciences (NCATS), 2010).
The list shows a part of the results. These are further read-outs of the screen, such as a control signal, another cell line or another target. No call is given for them. Most of these compounds were active or inconclusive in the main read-out, so they are no random draw. The note in brackets gives the kind of curve behind each potency; many fits are weak.

Assay: qHTS Assay for Lipid Storage Modulators in Drosophila S3 Cells;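 as to cell number change: cells counted by Cell Tracker Red CMTPX staining in the red channel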
Conditions: BODIPY lipid droplet fluorescence, 18-24 h; for cell number change: measured here: cell count max response, cells fed with added oleic acid
Outline: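 Drosophila S3 cells loaded with oleic acid (400 uM, as added) and compounds at several concentrations; lipid droplets imaged by 488-nm laser-scanning cytometry, 500–530 nm intensity and object ratio to cell channel. Percent activity normalized to 20 uM Triacsin C.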

[1] = measured here: lipid fluorescence (Fed channel) AC50, cells fed with added oleic acid
[2] = measured here: cell number channel AC50, cells fed with added oleic acid

SMILES | cell number change [%] | AC50 [1] | AC50 [2]
Cc1cc(C)n2cc(CSc3nnnn3-c3ccccc3)nc2n1 | -3.5 | 1.3 µM [rising, partial curve] | –
COc1ccc(S(=O)(=O)Nc2ccc(Cl)cn2)c(C)c1C | 88.1 | 6.51 µM [falling, single point] | –
CC1OC(O[C@H]2CC[C@]3(C)C4C=C[C@]56OC[C@@]7(CC[C@@H](C)[C@H](C)C75)[C@H](O)C[C@@]6(C)[C@]4(C)CC[C@H]3C2(C)C)C(OC2OC(CO)C(O)C(O)C2OC2OCC(O)C(O)C2O)C(O)C1O (some centres not stated) | -18.8 | – | –
CCN(C(=O)COC(=O)c1cccnc1SC)c1c(N)n(Cc2ccccc2)c(=O)[nH]c1=O | -65.6 | 18.4 µM [falling, partial curve] | –
Cc1cc(C)c(C)c(S(=O)(=O)NCc2ccco2)c1C | -29.6 | 0.82 µM [falling, full curve] | 0.184 µM [falling, full curve, poor fit]
CCOC(=O)N1CCC(NC(=O)CS(=O)(=O)Cc2nc(-c3ccc(C)cc3)oc2C)CC1 | 29.5 | 20.6 µM [rising, partial curve, poor fit] | –
CC(=O)N1C(C)c2ccccc2C(C)(C)CC12CCCCC2 (configuration not stated) | -25.6 | 29.1 µM [falling, single point] | –
COCCN(C(=O)COC(=O)c1ccc(C)o1)c1c(N)n(Cc2ccccc2)c(=O)[nH]c1=O | -3.21 | – | –
Cc1ccccc1C(=O)NC(=S)Nc1ccc(N2CCN(C(=O)c3ccccc3)CC2)cc1 | 4.09 | 2.31 µM [falling, single point] | –
O=C(NCCCN1CCCC1=O)c1cccs1 | -0.728 | – | –
COc1ccccc1CNS(=O)(=O)c1c(C)[nH]c(C)c1C(=O)N1CCCCC1 | – | 29.1 µM [falling, single point] | –
CCN(CC)C(=O)C[n+]1cccc(/C=N/O)c1 | – | 18.4 µM [rising, single point] | –
O=C(Nc1ccncc1)c1ccc(-c2ccccc2)cc1 | -54.7 | 13 µM [falling, partial curve] | 11.6 µM [falling, partial curve]
O=C(N[C@@H](c1ccccc1)[C@@H]1C[C@H]1C(=O)NCc1ccccn1)OCc1ccccc1 | 16.1 | 29.1 µM [rising, single point] | –
CCOC(=O)c1sc2nc(C)nc(N3CCN(c4ncccn4)CC3)c2c1C | -20.6 | 2.91 µM [falling, full curve] | 0.291 µM [falling, single point]
COc1cccc(CN(C(=O)Cn2nnc(-c3ccccc3F)n2)C(C(=O)NC(C)(C)C)c2ccncc2)c1 (configuration not stated) | 2.46 | 29.1 µM [falling, single point] | –
NC(=O)C1CCN(C(=O)CNC(=O)c2ccccc2)CC1 | 21.4 | 16.4 µM [rising, single point] | –
O=C(O)C(F)(F)C(NCc1ccccc1)c1ccccc1 (configuration not stated) | -8.65 | 23.1 µM [falling, partial curve, poor fit] | –
Cc1c(Cl)cccc1NC(=O)C1CCN(S(C)(=O)=O)CC1 | -11.1 | 7.31 µM [falling, single point] | –
COc1ccc(N2C(=O)CC(N3CCN(c4nc5ccccc5s4)CC3)C2=O)cc1 (configuration not stated) | 24.7 | 29.1 µM [rising, single point] | –

SMILES | cell number change [%] | AC50 [1] | AC50 [2]
C=CCC(O)(CCN1CCCCC1)c1ccccc1 (configuration not stated) | 8.77 | 8.2 µM [rising, partial curve] | –
Cc1[nH]c(=O)[nH]c(=O)c1NC(=O)c1ccc(OC(C)C)cc1 | 26.5 | 16.4 µM [rising, partial curve, poor fit] | –
Cc1ccc(C)c(OCc2cc(C(=O)N3CCN(c4cnccn4)CC3)no2)c1 | -0.289 | – | –
COc1ccc(C(C(=O)NCC2CCCO2)N(C(=O)c2snc(C(N)=O)c2N)c2ccccc2C)cc1OC (configuration not stated) | 2.17 | – | –
COc1ccccc1-c1cc(C(F)(F)F)nc(S(=O)(=O)CCCC(=O)N2CCOCC2)n1 | -73.7 | 18.4 µM [falling, partial curve] | 29.1 µM [falling, single point]
CCS(=O)(=O)N1CCC(c2nc3ccccc3[nH]2)CC1 | -1.83 | 0.58 µM [rising, single point] | –
OCCNc1nc2ccccc2n1CCN1CCCCC1 | 18.4 | 29.1 µM [rising, single point] | –
Cc1ccc(S(=O)(=O)CC2CSc3nnc(C)c(=O)n32)cc1 (configuration not stated) | 11.6 | 11.6 µM [falling, partial curve] | –
COc1ccc(OC)c(N(CC(=O)NCc2ccccc2)S(=O)(=O)c2ccc(OC)c(OC)c2)c1 | -13 | 18.4 µM [rising, single point] | –
COc1ccc(C2/C=C\CN(C(=O)NC(C)C)CC(=O)N2Cc2ccc(F)cc2)cc1 (configuration not stated) | 18.6 | 0.82 µM [rising, full curve, poor fit] | –
CC[C@H]1CN2CCc3cc(OC)c(OC)cc3[C@@H]2C[C@@H]1C[C@H]1NCCc2cc(OC)c(OC)cc21 | -31.1 | 10.3 µM [falling, partial curve] | 0.326 µM [falling, full curve]
CN(C)S(=O)(=O)c1cccc(COC(=O)CCNC(=O)c2ccc([N+](=O)[O-])cc2)c1 | – | 20.6 µM [falling, single point] | –
CC1CCN(S(=O)(=O)c2cccc(-c3cn4cc(Cl)ccc4n3)c2)CC1 | 0.0849 | 6.51 µM [rising, single point] | –
CCC(C)(C)NC(=O)Cc1ccc(C)cc1 | 20.9 | – | –
Cc1cccc(NC(=S)N2CCN(c3cc(C)ccc3C)CC2)c1 | 6.11 | 29.1 µM [falling, single point] | –
COC(=O)c1ccc(NC(=O)c2ccc(C)cc2)o1 | 22.3 | 16.4 µM [rising, partial curve] | –
O=C(NCCC1=CCCCC1)C1CCC(CNS(=O)(=O)c2ccccc2)CC1 (configuration not stated) | 34.8 | – | 16.4 µM [rising, single point]
O=C(CCNC(=O)c1ccccc1Cl)NCCCSc1ccccc1 | 24 | 6.51 µM [falling, single point] | –
Cn1c(SCC(=O)N/N=C/c2ccc([N+](=O)[O-])s2)nnc1-c1ccc(Cl)cc1 | -59.9 | 29.1 µM [falling, single point] | 20.6 µM [falling, partial curve, poor fit]
COc1ccc(/C=N/NC(=O)CCc2nc3ccccc3[nH]2)cc1 | 25.9 | 8.2 µM [rising, partial curve] | –

SMILES | cell number change [%] | AC50 [1] | AC50 [2]
CCC1C(=O)N=C(SCC(=O)Nc2ccc(C(=O)OC)cc2)NC1=O (configuration not stated) | 9.36 | – | 2.06 µM [rising, single point]
O=Cc1c(NC2CCCCC2)c2ccccc2[nH]c1=O | 11.1 | 29.1 µM [falling, single point] | –
O=C1CN(S(=O)(=O)c2ccc(Cl)cc2C(F)(F)F)CCN1 | 65 | 0.146 µM [falling, partial curve] | 29.1 µM [rising, single point]
CCOC(=O)C1=C(COC(=O)COc2cccc(C)c2C)NC(=O)NC1C (configuration not stated) | -22.1 | 25.9 µM [rising, single point] | –
CCc1c(C)sc(NC(=O)c2cc(-c3ccco3)on2)c1C#N | 5.21 | 18.4 µM [rising, single point] | –
O=C(O)c1cc2c(ccc3ccccc32)o1 | – | 9.2 µM [rising, single point] | –
COc1cc(CN(CC2CCCO2)C(=O)c2ccco2)cc(OC)c1OC (configuration not stated) | – | 0.13 µM [falling, partial curve, poor fit] | –
CC1CCCCN1C(=O)C12CCC(C)(/C(=N/O)C1)C2(C)C (configuration not stated) | 19 | 0.184 µM [falling, full curve, poor fit] | –
CN(C)CCN(C(=O)C1CCN(S(=O)(=O)c2cccs2)CC1)c1nc2c(F)cccc2s1 | – | – | 0.146 µM [rising, full curve, poor fit]
COc1ccc(S(=O)(=O)N2CCN(C(=O)CCCN3C(=O)NC4(CCCC4)C3=O)CC2)cc1 | -13.5 | 0.731 µM [rising, single point] | –
CCCSc1nc2sc3c(c2c(=O)n1-c1ccc(OC)cc1)CCN(C)C3 | 5.56 | 2.31 µM [rising, partial curve] | –
Cc1cc(OC(=O)c2c(F)cc(F)cc2F)nc(C)n1 | -19 | – | 0.00651 µM [falling, full curve, poor fit]
Cc1cccc(N(C(=O)CNC(=O)c2ccco2)C(C(=O)NCC2CCCO2)c2ccccc2)c1 (configuration not stated) | 22.1 | – | –
Cc1ccc(NC(=O)CSc2nnc(COc3ccc(C#N)cc3)n2-c2ccccc2)cc1C | -9.98 | 0.366 µM [rising, full curve, poor fit] | –
COc1ccc(N2CCN(c3oc(-c4ccc(OC)c(OC)c4)nc3C#N)CC2)cc1 | 5.6 | – | –
CC(C)NC(=O)NC(=O)COC(=O)c1cccc(OC(F)F)c1 | 28.7 | – | –
CN(c1ccc(C(=O)NCCSCc2ccccc2)cc1)S(=O)(=O)c1ccccc1 | -17.6 | 11.6 µM [falling, single point] | –
COC(=O)CC1C(=O)NCCN1C(=O)c1ccc(Cl)cc1 (configuration not stated) | -12.6 | – | –
S=C(Nc1ccc(Cl)c(Cl)c1)N1CCN(c2ccccn2)CC1 | 23.8 | 29.1 µM [rising, single point] | 0.00517 µM [rising, full curve, poor fit]
CCCCCCCc1c(C#N)c(N)[nH]c(=S)c1C#N | 32.7 | 3.26 µM [falling, single point] | –

Pulled by compound from the list above:
SMILES | cell number change [%] | AC50 [1] | AC50 [2]
CCC1C(=O)N=C(SCC(=O)Nc2ccc(C(=O)OC)cc2)NC1=O (configuration not stated) | 9.36 | – | 2.06 µM [rising, single point]
COc1ccc(S(=O)(=O)Nc2ccc(Cl)cn2)c(C)c1C | 88.1 | 6.51 µM [falling, single point] | –
CN(C)S(=O)(=O)c1cccc(COC(=O)CCNC(=O)c2ccc([N+](=O)[O-])cc2)c1 | – | 20.6 µM [falling, single point] | –
CCCSc1nc2sc3c(c2c(=O)n1-c1ccc(OC)cc1)CCN(C)C3 | 5.56 | 2.31 µM [rising, partial curve] | –
